The supplement of paper PMC10849652
Some of the results follow.

Chains of the proteins cited; added tags and fusions are not shown. Lines headed by an entry give the natural chain unless they say otherwise; changes in a name come on top.
UniProt P18847: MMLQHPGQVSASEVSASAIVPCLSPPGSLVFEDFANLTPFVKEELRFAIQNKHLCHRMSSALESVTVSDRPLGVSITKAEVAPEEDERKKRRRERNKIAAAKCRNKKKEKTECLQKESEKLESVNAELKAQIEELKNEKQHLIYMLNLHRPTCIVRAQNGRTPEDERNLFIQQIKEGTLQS
UniProt P21281, whole entry, looked up: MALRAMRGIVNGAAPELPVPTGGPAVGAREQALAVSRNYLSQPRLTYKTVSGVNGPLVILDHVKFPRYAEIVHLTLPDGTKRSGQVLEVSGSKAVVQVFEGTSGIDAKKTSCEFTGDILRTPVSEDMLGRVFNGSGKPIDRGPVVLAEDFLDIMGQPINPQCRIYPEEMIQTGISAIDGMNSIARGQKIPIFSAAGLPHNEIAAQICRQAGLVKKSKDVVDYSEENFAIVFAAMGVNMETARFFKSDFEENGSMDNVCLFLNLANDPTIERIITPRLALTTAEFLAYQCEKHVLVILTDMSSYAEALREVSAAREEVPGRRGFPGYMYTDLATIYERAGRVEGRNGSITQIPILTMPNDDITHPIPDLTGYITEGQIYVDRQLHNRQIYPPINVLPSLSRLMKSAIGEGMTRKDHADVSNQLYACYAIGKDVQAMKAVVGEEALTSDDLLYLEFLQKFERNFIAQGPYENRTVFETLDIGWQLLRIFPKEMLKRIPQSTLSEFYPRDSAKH
UniProt Q9Y4P1: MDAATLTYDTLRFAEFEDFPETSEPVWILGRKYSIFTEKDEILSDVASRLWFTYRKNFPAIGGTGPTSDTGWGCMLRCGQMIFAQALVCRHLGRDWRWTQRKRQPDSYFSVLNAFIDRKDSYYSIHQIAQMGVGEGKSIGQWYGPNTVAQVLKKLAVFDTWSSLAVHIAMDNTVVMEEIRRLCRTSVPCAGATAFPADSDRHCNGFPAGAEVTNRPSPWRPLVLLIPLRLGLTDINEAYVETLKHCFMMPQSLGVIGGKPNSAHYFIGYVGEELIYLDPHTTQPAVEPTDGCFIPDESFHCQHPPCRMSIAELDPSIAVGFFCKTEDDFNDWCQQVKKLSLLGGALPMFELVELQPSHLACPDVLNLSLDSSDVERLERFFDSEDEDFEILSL
UniProt P40616: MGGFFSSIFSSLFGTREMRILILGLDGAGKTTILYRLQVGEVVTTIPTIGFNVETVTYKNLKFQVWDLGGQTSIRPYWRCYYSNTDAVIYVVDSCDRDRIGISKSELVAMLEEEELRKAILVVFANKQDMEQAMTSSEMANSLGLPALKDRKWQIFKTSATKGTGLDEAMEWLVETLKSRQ
UniProt P00966: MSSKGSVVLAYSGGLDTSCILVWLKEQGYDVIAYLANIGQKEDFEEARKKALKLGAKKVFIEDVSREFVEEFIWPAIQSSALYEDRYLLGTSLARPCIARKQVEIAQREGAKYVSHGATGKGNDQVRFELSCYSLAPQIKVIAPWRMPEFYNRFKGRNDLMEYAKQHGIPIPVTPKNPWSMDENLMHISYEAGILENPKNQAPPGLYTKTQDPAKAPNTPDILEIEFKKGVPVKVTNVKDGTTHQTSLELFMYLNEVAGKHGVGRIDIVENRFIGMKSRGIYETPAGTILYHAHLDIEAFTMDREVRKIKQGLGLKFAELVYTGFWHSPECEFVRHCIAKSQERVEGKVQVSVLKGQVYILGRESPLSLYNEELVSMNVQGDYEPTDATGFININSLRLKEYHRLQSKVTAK
UniProt Q93084: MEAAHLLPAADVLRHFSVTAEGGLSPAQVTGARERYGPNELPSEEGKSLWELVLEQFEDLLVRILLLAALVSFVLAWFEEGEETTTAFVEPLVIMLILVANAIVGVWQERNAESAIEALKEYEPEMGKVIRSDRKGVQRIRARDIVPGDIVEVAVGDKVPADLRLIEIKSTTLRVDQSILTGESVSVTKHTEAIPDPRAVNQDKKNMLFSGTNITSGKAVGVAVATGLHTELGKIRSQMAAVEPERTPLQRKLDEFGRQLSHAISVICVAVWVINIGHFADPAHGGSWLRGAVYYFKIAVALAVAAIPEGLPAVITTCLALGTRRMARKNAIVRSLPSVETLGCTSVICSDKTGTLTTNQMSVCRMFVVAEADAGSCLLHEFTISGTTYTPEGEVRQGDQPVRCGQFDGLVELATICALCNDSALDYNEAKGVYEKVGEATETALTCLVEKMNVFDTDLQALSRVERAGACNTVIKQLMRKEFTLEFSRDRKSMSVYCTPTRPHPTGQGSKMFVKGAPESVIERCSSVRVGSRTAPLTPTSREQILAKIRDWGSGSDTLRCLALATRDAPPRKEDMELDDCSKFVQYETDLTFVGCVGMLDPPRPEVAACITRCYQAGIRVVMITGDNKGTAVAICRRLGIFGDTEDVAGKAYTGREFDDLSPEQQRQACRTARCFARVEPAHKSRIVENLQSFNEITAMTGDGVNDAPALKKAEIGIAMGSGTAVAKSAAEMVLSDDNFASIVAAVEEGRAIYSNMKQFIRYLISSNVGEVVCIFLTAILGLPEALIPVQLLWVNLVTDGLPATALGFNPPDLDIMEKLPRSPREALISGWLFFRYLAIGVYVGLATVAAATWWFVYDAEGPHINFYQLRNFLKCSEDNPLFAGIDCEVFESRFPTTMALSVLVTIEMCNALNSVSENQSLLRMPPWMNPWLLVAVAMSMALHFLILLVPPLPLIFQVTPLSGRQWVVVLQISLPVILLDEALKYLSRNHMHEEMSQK
UniProt Q13733, whole entry, looked up: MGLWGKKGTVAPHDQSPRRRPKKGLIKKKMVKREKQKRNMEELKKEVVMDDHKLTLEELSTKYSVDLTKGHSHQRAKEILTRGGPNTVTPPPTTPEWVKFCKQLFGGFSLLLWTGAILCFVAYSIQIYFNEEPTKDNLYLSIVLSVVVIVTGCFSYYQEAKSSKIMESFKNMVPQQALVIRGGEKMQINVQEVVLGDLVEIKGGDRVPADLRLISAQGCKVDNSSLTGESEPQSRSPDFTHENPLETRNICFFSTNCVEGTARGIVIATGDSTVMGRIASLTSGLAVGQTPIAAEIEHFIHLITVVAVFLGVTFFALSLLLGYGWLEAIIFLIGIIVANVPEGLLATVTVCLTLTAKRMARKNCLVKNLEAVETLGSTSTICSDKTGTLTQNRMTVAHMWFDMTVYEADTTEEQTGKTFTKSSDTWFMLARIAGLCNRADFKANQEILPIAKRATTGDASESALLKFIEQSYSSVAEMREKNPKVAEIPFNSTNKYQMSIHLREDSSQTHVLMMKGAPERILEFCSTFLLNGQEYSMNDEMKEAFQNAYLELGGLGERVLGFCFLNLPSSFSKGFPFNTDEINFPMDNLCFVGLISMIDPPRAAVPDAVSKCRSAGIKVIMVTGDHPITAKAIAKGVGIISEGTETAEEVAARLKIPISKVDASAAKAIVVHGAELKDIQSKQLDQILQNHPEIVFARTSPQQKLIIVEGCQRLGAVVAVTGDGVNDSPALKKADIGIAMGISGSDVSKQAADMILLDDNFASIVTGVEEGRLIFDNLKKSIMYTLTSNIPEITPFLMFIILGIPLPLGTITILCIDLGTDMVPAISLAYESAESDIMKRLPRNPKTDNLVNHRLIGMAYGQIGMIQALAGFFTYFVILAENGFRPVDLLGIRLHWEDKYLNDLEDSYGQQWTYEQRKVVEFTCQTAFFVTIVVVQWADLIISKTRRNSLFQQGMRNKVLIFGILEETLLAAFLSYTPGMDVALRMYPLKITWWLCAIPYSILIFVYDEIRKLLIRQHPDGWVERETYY
UniProt Q676U5: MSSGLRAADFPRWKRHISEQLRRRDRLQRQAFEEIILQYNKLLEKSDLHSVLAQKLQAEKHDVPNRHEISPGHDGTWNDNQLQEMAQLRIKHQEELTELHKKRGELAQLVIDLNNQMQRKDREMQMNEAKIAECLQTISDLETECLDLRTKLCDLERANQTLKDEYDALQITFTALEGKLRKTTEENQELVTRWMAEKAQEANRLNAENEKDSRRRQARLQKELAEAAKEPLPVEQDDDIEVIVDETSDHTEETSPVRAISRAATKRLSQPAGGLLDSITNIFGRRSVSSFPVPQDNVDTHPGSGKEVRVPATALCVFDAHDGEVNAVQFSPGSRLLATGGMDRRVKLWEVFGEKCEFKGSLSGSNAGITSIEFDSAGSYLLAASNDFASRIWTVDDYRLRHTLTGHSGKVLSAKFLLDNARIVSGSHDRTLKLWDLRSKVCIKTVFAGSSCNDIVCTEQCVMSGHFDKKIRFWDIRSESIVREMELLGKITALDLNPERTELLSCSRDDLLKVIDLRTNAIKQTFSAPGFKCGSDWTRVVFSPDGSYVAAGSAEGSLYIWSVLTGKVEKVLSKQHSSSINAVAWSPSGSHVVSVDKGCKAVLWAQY
UniProt Q6UWY0: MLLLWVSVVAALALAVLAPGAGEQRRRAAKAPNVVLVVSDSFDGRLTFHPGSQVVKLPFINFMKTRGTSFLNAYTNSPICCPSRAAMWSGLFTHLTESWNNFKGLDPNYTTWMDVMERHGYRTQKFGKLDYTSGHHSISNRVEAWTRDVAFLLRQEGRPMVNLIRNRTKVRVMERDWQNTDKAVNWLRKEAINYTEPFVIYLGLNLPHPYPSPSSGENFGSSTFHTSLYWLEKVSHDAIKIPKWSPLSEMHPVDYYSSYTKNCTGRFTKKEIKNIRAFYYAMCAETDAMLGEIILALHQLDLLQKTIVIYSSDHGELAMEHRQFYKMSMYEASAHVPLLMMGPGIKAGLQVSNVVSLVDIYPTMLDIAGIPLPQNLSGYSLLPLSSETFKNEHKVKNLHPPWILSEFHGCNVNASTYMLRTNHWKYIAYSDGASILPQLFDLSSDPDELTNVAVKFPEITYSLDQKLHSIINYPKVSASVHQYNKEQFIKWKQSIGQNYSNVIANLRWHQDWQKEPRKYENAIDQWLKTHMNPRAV
UniProt Q8IXJ9: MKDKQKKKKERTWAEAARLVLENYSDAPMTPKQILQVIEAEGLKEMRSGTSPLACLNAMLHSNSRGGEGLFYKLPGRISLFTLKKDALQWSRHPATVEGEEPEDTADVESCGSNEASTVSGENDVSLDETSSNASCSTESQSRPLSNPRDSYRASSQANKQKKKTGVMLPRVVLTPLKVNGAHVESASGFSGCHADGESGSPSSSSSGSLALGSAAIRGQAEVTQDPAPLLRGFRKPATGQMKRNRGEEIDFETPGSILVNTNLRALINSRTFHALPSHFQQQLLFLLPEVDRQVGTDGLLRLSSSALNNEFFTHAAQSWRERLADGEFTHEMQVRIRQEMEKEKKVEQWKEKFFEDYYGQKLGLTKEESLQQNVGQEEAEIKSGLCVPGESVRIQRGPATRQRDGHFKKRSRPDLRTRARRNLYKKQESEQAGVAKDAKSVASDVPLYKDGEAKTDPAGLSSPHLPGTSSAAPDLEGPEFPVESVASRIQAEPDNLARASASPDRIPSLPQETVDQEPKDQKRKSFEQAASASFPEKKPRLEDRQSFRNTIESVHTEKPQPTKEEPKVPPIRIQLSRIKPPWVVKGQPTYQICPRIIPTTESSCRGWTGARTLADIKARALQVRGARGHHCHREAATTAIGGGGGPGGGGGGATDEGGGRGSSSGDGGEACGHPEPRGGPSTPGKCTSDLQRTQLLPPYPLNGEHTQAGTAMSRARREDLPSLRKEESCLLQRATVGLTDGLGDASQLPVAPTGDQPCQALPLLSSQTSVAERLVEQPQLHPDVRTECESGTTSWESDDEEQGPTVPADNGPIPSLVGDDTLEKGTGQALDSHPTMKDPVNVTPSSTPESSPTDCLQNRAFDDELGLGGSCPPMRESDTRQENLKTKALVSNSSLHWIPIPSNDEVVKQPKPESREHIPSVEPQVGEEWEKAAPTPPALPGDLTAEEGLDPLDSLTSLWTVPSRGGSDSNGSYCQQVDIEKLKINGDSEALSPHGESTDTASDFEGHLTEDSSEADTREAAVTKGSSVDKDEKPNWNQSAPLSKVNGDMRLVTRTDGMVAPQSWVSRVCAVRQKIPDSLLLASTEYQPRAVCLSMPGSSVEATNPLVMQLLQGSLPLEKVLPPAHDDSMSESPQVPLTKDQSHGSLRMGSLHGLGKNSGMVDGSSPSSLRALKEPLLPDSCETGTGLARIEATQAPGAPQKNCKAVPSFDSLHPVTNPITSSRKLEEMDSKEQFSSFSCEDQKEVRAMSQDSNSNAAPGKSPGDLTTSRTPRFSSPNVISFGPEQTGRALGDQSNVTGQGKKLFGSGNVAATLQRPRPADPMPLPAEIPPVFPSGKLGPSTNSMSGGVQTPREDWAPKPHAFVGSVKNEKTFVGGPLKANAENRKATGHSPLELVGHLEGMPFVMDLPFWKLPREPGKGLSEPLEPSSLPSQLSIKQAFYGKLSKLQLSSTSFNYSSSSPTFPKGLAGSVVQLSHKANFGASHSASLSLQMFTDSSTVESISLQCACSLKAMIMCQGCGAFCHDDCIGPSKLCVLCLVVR

Assays:
Assay in all cases: log2 fold change, soluble protein after heating vs DMSO (PISA); higher = thermal stabilisation; K562 cells, 10 uM, 30 min; active = over 0.2 and 3.5 SD of the protein, either way, in both replicates (recomputed)
[1] = compound: CC[C@@H]1C(=O)N(C)c2cnc(Nc3ccc(C(=O)NC4CCN(C)CC4)cc3OC)nc2N1C1CCCC1
How it was run: (§1)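 K562 cells (2×10^6 cells/mL) were treated with 10 μM compound for 30 min, and aliquots were heated for 3 min over 48°C-58°C. Pooled aliquots were extracted in PBS with 0.5% NP-40 at 4°C, and the supernatant after 21,000xg for 90 min was measured by TMTpro 16plex LC-MS/MS with channel sums equalised. Reported thermal stability, relative to control samples and from duplicates, is a log2 fold change.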

[2] = compound: CC[C@@H]1C(=O)N(C)c2cnc(Nc3ccc(C(=O)N[C@H]4CC[C@H](N5CCN(CC6CC6)CC5)CC4)cc3OC)nc2N1C(C)C [volasertib]
How it was run: as §1

[3] = compound: CC[C@H](C)N1C=C(C2=C(C=C(C=C21)C3=CN=C(C=C3)N4CCNCC4)C(=O)NCC5=C(C=C(NC5=O)C)C)C
How it was run: as §1

[4] = compound: CC[C@H](C)[C@@H](C(=O)N[C@@H]([C@@H](C)O)C(=O)N[C@@H](CC(C)C)C(=O)[C@]1(CO1)C)NC(=O)[C@H]([C@@H](C)CC)N(C)C(=O)C [epoxomicin]
How it was run: as §1

[5] = compound: CCn1c(C(=O)N(C2CC2)C2CC2)cc2c3c(ncn3C)c(Nc3cc(C)n(C)n3)nc21
How it was run: as §1

[6] = compound: CN(C)CC(=O)Nc1ccc2[nH]c(=O)c3ccccc3c2c1
How it was run: as §1

[7] = compound: CN(CCOC1=CC=C(C=C1)C[C@H]2C(=O)NC(=O)S2)C3=CC=CC=N3 (racemic) [rosiglitazone]
How it was run: as §1

[8] = compound: CN1C2=C(C3=C1C(=O)N(N=C3)CC4=CC(=CC=C4)N)SC(=C2)S(=O)C
How it was run: as §1

[9] = compound: CN1CCN(CCOc2cc(OC3CCOCC3)c3c(Nc4c(Cl)ccc5c4OCO5)ncnc3c2)CC1 [saracatinib]
How it was run: as §1

[10] = compound: CN1CCN(c2nc(C3=C(c4c[nH]c5ccccc45)C(=O)NC3=O)c3ccccc3n2)CC1 [sotrastaurin]
How it was run: as §1

[11] = compound: CN1CC[C@H](c2c(O)cc(O)c3c(=O)cc(-c4ccccc4Cl)oc23)[C@H](O)C1 [alvocidib]
How it was run: as §1

[12] = compound: CN1CCc2c(c3ccccc3n2Cc2ccc(C(=O)NO)cc2)C1 [Tubastatin A]
How it was run: as §1

[13] = compound: CNC(=O)C1=CC=CC=C1NC2=NC(=NC=C2Cl)NC3=C(C=C(C=C3)N4CCOCC4)OC
How it was run: as §1

[14] = compound: CNC(=O)c1ccc(Nc2ncc(C(F)(F)F)c(NCc3nccnc3N(C)S(C)(=O)=O)n2)cc1 [defactinib]
How it was run: as §1

[15] = compound: CNCc1ccc(-c2[nH]c3cc(F)cc4c3c2CCNC4=O)cc1 [rucaparib]
How it was run: as §1

[16] = compound: CNc1nc(-c2ccc3c(N)n[nH]c3c2)cc(N2C[C@@H](C(=O)NC3CCCCC3)CC[C@H]2C)n1
How it was run: as §1

[17] = compound: COC(=O)N[C@@H](C)CNc1nccc(-c2cn(C(C)C)nc2-c2cc(Cl)cc(NS(C)(=O)=O)c2F)n1 [encorafenib]
How it was run: as §1

[18] = compound: COC(=O)[C@H](CCSC)NC(=O)C1=C(C=C(C=C1)NC[C@H](CS)N)C2=CC=CC=C2
How it was run: as §1

[19] = compound: CCn1cc(-c2ccnc3[nH]c(-c4cccc(CN(C)C)c4)cc23)c(-c2ccc(NC(=O)N(C)C)cc2)n1
How it was run: as §1

[20] = compound: CN1CCC(CNc2ccc3ncc(-c4cccc(OC(F)(F)F)c4)n3n2)CC1
How it was run: as §1

Measured: log2 fold change

ATF3 (UniProt P18847)
inactive: [1] 0.054 | [2] 0.106 | [3] 0.22 | [4] 0.14 | [5] -0.111 | [6] -0.112 | [7] -0.194 | [8] 0.066 | [9] 0.086 | [10] -0.117 | [11] 0.21 | [12] 0.045 | [13] -0.262 | [14] 0 | [15] 0.28 | [16] -0.003 | [17] -0.027 | [18] 0.139

ATP6V1B2 (UniProt P21281)
inactive: [1] -0.087 | [2] -0.029 | [3] -0.033 | [4] 0.014 | [5] 0.022 | [19] -0.111 | [6] -0.02 | [7] -0.002 | [8] -0.022 | [20] -0.091 | [9] 0.003 | [10] 0.009 | [11] 0.029 | [12] 0.027 | [13] -0.056 | [14] 0.018 | [15] 0.036 | [16] -0.007 | [17] -0.001 | [18] 0.025

ATG4B isoform 2 (UniProt Q9Y4P1)
inactive: [1] -0.007 | [2] -0.441 | [3] 0.16 | [4] -0.013 | [19] 0.039 | [6] 0.08 | [8] 0.1 | [20] -0.302 | [9] -0.186 | [10] -0.297 | [12] 0.02 | [13] 0.027 | [14] -0.263 | [15] -0.02 | [16] 0.004 | [17] -0.003 | [18] -0.04

ARL1 (UniProt P40616)
inactive: [1] 0.072 | [2] -0.113 | [3] 0.023 | [4] 0.028 | [19] -0.05 | [6] 0.025 | [8] -0.157 | [20] 0.059 | [9] 0.117 | [10] -0.049 | [12] 0.031 | [13] -0.017 | [14] 0.03 | [15] -0.012 | [16] 0.058 | [17] 0.117 | [18] -0.178

ASS1 (UniProt P00966)
inactive: [1] 0.02 | [2] 0.024 | [3] 0.412 | [4] 0.025 | [19] 0.04 | [6] -0.072 | [8] 0.025 | [20] -0.005 | [9] 0.062 | [10] 0.088 | [12] -0.183 | [13] -0.047 | [14] -0.007 | [15] 0.11 | [16] -0.122 | [17] -0.018 | [18] 0.045

ATP2A3 isoform 2 (UniProt Q93084)
inactive: [1] -0.142 | [2] -0.208 | [3] 0.046 | [4] 0.06 | [19] -0.047 | [6] -0.028 | [8] -0.016 | [20] 0.028 | [9] 0.058 | [10] -0.007 | [12] -0.022 | [13] -0.026 | [14] -0.021 | [15] -0.04 | [16] 0.033 | [17] 0.027 | [18] 0.002

ATP1A4 (UniProt Q13733)
inactive: [1] 0.125 | [2] 0.07 | [3] -0.025 | [4] 0.081 | [19] -0.056 | [6] -0.05 | [8] -0.057 | [9] 0.066 | [10] -0.088 | [12] -0.017 | [13] 0.151 | [14] 0.033 | [15] -0.076 | [16] -0.108 | [17] 0.021 | [18] 0.118
active: [20] 0.26

ATP9B (UniProt O43861)
inactive: [1] -0.002 | [2] -0.15 | [3] -0.125 | [4] 0.055 | [19] -0.023 | [6] 0.013 | [8] 0.013 | [20] -0.109 | [9] 0.13 | [10] -0.185 | [12] -0.055 | [13] -0.02 | [14] -0.025 | [15] 0.081 | [16] -0.027 | [17] 0.058 | [18] 0.06

ATG16L1 (UniProt Q676U5)
inactive: [1] -0.066 | [2] 0.032 | [3] 0.013 | [4] -0.018 | [5] 0.024 | [19] -0.027 | [6] 0 | [7] 0.041 | [8] -0.041 | [20] -0.046 | [9] 0.063 | [10] 0.016 | [11] -0.029 | [12] -0.063 | [13] 0.018 | [14] -0.043 | [15] -0.001 | [16] -0.057 | [17] -0.013 | [18] 0.024

ARSK (UniProt Q6UWY0)
inactive: [3] 0.057 | [4] 0.045 | [5] 0.105 | [6] 0.05 | [7] 0.018 | [11] 0.001 | [13] 0.042 | [14] 0.018 | [18] -0.053

ATP5F1B (UniProt F8W0P7)
inactive: [2] 0.172 | [3] -0.15 | [4] 0.103 | [7] -0.1 | [8] -0.106 | [9] -0.011 | [10] -0.013 | [12] 0.132 | [16] 0.124

ASXL1 (UniProt Q8IXJ9)
inactive: [1] 0.003 | [2] 0.191 | [4] 0.131 | [5] -0.094 | [7] -0.056 | [10] 0.068 | [11] 0.152 | [12] 0.285 | [13] -0.163 | [15] 0.037 | [17] 0.111
